Laboratory results published in ChEMBL document CHEMBL4699547, “Design, synthesis, and multitargeted profiling of N-benzylpyrrolidine derivatives for the treatment of Alzheimer's disease” (Bioorg Med Chem, 2020).

Test: Permeability of the compound at 25 ug/ml after 18 hrs by PAMPA-BBB assay

COc1cc2c(cc1OC)C(=O)C(CC1CCN(Cc3ccccc3)CC1)C2 (stereo unspecified) [DONEPEZIL]
Papp at 18 h, 25 ug/ml: 7.2 ×10⁻⁶ cm/s
